# Reference: the supplement of paper PMC12819154, “High-throughput peptide-centric local stability assay extends protein–ligand identification to membrane proteins, tissues and bacteria” (Nature Structural & Molecular Biology, 2025)
# This is one part of the list. Most values lie at the level of the controls, where differences are scatter.
# Tests used:
# Experiment in all cases: log2 fold change of tryptic peptide abundance, ligand vs vehicle (limited proteolysis) (log2 ratio); higher = more trypsin-susceptible (destabilized)
# IVNS1ABP = target: T1, IVNS1ABP (UniProt Q9Y6Y0); details: peptide sequence: SGQFCDVR; peptide start residue: 28; ligand concentration: 5 uM; sample: K562 cleared lysate
# T1 sequence (whole entry): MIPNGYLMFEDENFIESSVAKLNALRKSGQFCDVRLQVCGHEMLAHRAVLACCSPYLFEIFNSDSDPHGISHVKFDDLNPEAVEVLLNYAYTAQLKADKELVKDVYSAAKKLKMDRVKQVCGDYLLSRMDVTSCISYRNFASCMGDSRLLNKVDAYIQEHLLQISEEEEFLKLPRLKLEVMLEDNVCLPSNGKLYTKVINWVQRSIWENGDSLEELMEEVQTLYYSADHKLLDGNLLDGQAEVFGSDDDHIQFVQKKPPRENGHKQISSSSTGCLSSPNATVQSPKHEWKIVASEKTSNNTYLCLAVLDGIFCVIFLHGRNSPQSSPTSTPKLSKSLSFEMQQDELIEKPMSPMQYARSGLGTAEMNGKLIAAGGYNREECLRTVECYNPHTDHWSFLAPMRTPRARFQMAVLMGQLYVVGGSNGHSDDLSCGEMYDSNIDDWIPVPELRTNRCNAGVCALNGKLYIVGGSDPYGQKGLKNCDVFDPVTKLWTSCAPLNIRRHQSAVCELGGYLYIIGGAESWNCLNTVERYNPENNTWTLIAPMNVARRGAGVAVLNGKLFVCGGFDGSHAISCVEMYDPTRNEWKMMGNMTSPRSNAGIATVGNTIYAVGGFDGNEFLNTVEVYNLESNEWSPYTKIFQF
# MORC2 = target: T2, MORC2 (UniProt Q9Y6X9); details: peptide sequence: AKASEESLR; peptide start residue: 973; ligand concentration: 5 uM; sample: K562 cleared lysate
# T2 sequence (whole entry): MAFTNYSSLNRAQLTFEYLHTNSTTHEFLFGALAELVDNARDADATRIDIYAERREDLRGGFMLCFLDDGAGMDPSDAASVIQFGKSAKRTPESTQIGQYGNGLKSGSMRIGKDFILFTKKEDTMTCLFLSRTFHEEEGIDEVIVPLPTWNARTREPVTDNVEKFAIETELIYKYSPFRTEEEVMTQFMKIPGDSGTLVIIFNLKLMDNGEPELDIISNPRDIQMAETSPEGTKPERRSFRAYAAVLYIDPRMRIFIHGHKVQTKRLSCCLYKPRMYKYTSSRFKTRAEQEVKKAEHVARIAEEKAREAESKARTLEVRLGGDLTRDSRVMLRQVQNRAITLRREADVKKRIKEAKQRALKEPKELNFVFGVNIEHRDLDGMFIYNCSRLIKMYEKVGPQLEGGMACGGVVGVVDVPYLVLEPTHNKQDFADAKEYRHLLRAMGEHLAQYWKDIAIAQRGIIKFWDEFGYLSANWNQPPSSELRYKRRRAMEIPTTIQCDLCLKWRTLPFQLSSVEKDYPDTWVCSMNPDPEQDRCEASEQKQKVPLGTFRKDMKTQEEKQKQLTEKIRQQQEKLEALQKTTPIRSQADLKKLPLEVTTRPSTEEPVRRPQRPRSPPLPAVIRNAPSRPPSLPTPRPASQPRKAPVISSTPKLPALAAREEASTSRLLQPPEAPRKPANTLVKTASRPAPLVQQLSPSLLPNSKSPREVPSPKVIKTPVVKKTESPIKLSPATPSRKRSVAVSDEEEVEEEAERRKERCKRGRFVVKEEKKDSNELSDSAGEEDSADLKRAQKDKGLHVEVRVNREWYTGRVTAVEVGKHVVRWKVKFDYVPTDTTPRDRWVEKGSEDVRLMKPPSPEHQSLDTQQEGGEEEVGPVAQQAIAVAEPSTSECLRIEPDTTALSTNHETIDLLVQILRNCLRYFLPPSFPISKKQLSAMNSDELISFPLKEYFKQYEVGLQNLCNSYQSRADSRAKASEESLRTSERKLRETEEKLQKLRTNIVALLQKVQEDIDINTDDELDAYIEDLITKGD
# SEC23IP = target: T3, SEC23IP (UniProt Q9Y6Y8); details: peptide sequence: RLEFPSGETIVMHNPK; peptide start residue: 382; ligand concentration: 5 uM; sample: K562 cleared lysate
# T3 sequence (whole entry): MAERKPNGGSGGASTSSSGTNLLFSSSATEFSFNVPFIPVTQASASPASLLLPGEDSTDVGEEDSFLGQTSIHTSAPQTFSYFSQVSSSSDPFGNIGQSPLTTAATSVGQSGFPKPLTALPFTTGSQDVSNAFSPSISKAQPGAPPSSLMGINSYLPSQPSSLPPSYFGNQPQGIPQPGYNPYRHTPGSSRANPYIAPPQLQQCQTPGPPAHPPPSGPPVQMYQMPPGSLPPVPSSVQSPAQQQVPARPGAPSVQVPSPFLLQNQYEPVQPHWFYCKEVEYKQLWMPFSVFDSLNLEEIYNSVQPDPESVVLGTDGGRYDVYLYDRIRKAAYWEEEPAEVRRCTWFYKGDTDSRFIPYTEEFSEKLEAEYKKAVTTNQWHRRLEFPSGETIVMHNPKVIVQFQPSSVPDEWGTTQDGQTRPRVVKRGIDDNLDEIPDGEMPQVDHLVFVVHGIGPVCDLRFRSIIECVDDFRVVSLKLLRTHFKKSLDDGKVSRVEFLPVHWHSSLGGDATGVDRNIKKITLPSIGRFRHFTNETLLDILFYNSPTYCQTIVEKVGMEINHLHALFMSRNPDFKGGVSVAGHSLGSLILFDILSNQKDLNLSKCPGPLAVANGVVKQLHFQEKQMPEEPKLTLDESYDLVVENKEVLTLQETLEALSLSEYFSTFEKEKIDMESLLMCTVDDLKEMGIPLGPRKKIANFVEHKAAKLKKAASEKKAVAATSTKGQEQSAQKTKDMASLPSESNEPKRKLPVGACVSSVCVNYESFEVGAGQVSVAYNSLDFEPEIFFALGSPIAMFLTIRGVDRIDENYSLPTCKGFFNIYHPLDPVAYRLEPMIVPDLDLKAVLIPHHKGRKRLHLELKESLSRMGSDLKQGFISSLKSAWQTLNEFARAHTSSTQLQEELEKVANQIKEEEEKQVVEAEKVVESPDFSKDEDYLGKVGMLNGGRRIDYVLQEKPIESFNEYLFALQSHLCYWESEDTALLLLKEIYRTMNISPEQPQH
compound,measurement,setting,value
Cc1nc(Nc2ncc(C(=O)Nc3c(C)cccc3Cl)s2)cc(N2CCN(CCO)CC2)n1 [dasatinib],log2 fold change,IVNS1ABP,0.114
same,log2 fold change,MORC2,-0.204
same,log2 fold change,SEC23IP,-0.328
